Assay results taken from patent US6087336A (Zeneca Limited, priority 1996, dated 2000).

Tests used:
[1] = solid-phase peptide synthesis; settings: for final HPLC purity: RP-HPLC (Vydac C18 218TP54), scale of the general procedure 0.25 mmoles
[2] = general procedure: Fmoc solid-phase peptide synthesis; Fmoc Rink Amide MBHA resin; HBTU/HOBT/DIPEA; diisopropylcarbodiimide/HOBT on ACT 357; settings: whole synthesis, scale 0.25 mmol
[3] = general procedure: Fmoc solid-phase peptide synthesis; Hydroxymethyl polystyrene resin; HBTU/HOBT/DIPEA; diisopropylcarbodiimide/HOBT on ACT 357; settings: whole synthesis, scale 1 mmol
[4] = general procedure: Fmoc solid-phase peptide synthesis; Fmoc Rink Amide resin; HBTU/HOBT/DIPEA; diisopropylcarbodiimide/HOBT on ACT 357; settings: whole synthesis, scale 0.25 mmole

With Phv-Ala-Ala-Ala-Lys-Val-III-Ala-Pip-NH2 the “final HPLC purity” value ([1]; whole synthesis) was greater than 95% pure.

In the case of Phv-Ala-Ala-Ala-Lys-Val-IIb-Ala-Pip-NH2, the “final HPLC purity” value ([1]; whole synthesis) is reported as 100% purity, the isolated mass [2] is reported as 84 mg and the isolated yield [2] is reported as 35% yield.

In the case of Phv-Ala-Arg-Ala-Arg-Thr-IIb-Gly-NHEt, the isolated mass ([1]; whole synthesis, scale 0.25 mmole) is reported as 168 mg.

For “Phv-Arg-Ala-Ala-Ala-Thr-IIb-Ala-Papa-NHCH2 CH2 -Morpholine”, the isolated mass [3] was 40 mg.

Work on Phv-Arg-Ala-Ala-Ala-Thr-IIb-Ala-Papa-OH yielded an isolated mass [3] of 155 mg.

For “Phv-Arg-Ala-Ala-Ala-Thr-IIb-Ala-Papa-OMe”, the isolated mass [3] was 37 mg.

For “Phv-Dap-Ala-Ala-Ala-Thr-IIb-Ala-Papa-NH2”, the isolated mass [4] was 304 mg.

In the case of “Phv-Gap-Ala-Ala-Ala-Thr-IIb-Ala-Papa-NH2”, the difficulty met ([1]; late stage modification step) is reported as “only 40% conversion to the corresponding Gap peptide. Attempted preparative RP-HPLC failed to completely separate”.
